Screening data, single-dose tests

Data taken from ChEMBL document CHEMBL3988442, “University of Dundee, Small-Polar-MMV Screening Library” (2021).

A: 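Phenotypic screen: M. tuberculosis growth, cholesterol and DPPC medium, 4 days; the read-out is not stated. Tested at 50 µM. Direction is inferred from retests: higher values go with more growth inhibition. Size under these conditions: about 69,000 compounds, about 370 of them at 50% or above in at least one test.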
B: 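Whole-cell growth test on Mycobacterium tuberculosis, read after 3 days in glucose-containing 7H9 medium; the read-out is not stated. Concentration: 50 µM. The record gives no direction; compounds that gave an IC50 in retests scored well above the rest, so higher reads as more growth inhibition. Size under these conditions: about 69,000 compounds, about 760 of them at 50% or above in at least one test.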

Each number is a percent effect as filed.
How 0% and 100% were set is not recorded. Most values in the screen are low, and negative values occur.
Compounds were drawn at random from those tested, without regard to their results.
Two or more numbers in one place are separate tests of the same structure; such repeats can differ widely.

structure,A,B
O=C(Nc1ccccn1)C1CCN(Cc2cccc3c2OCCO3)CC1,-24.33,-28.97
[H][C@@]12CCN(Cc3ccncc3)C[C@]1([H])OCCN(c1ccccc1)C2=O,11.47,-18.32
COc1cc(C(=O)N2CC(Oc3ccccc3Cl)C2)ccn1,18.72,-19.82
NC1CCc2c(ccc(=O)n2CC2CC2)C1 (stereo not given),10.86,-14.99
COCCCn1cnnc1CNc1cc(C)nc2ccnn12,-9.39,-10.95
Cc1noc(CCCC(=O)N2CCCCC2c2nccs2)n1 (stereo not given),-35.45,10.03
CN(C)CC1CSCCCN1C(=O)c1ccc(=O)[nH]c1 (stereo not given),-7.447,-19.67
NC(=O)CN1CCC(NC(=O)COCCOc2ccccc2)CC1,6.311,14.23 & -2.389
CC1c2ncc(CN3CCN(C)CC3)n2CCN1Cc1ccc(F)cc1.O=C(O)C(F)(F)F.O=C(O)C(F)(F)F.O=C(O)C(F)(F)F (stereo not given),11.7,19.65
Cc1cc(F)cc(CN2CCCn3nc(CNS(C)(=O)=O)cc3C2)c1,3.736,-12.11
CN(C)C(CNS(=O)(=O)c1cc(F)ccc1F)c1cccn1C (stereo not given),4.929,-1.838
COc1c(CNC2CCc3cc(Cl)ccc32)c(C)nn1C (stereo not given),1.994,-10.24
O=C(Cc1cnc(-n2cccc2)s1)NCCCO,-11.36,-8.963
NS(=O)(=O)c1cccc(CNc2nccc(C(F)(F)F)n2)c1,-33.33,-7.304
Cc1noc(CN(Cc2ccco2)Cc2cccc3c2OCO3)n1,27.53,4.832
CC(NC(=O)NCCn1ccnc1)c1ccc2c(c1)OCCO2 (stereo not given),-13.92,10.66
CC(=O)N1CCC(Cc2cccc(-c3c(C)noc3C)n2)C1 (stereo not given),-1.452,-6.219
Cc1ccc(C(=O)NCC2CCN(C)c3ccccc32)c(=O)[nH]1 (stereo not given),-0.4378,11.98 & 7.138
COc1cc(C(=O)NS(=O)(=O)c2cncc(Br)c2)cc(Cl)c1OC,3.402,-0.9832 & -13.78
CCN(CC1CCCO1)C(=O)Nc1cc(OC)c(OC)cc1C (stereo not given),0.5469,16.73
COCc1ccccc1NC(=O)NC(C)c1ccc(C)o1 (stereo not given),-33.61,20.04 & 3.982
O=C(COc1ccc(-n2cccn2)nn1)NC1CCCCC1,0.6212,12.7
O=C(N1CC(c2cccnc2)C1)C1(c2ccc(F)cc2)CCOCC1,10.58,-7.581 & 0.3501
O=C(O)C(F)(F)F.O=C(O)C(F)(F)F.[H][C@@]12CN(CCOC)C[C@]1([H])[C@@H](OC)CCN2Cc1cccs1,10.08,20.96
O=C(c1ccc(F)cc1F)N1CC[C@H](O)[C@@H](N2CCOCC2)CC1,2.515,24.3
CC(=O)Cc1c(C)nn(-c2cncc(N)c2)c1C,-21.83,-38.08
COc1ccc(Cn2ccnc2)cc1F,-4.467,-2.22
CCOc1ccnc(N2CCN(C(=O)c3cn[nH]c3CC)CC2)n1,-7.729,20.44
Cc1oc(CN(C)C(=O)c2ccc(C(F)(F)F)cc2)cc1C(=O)O,-6.37 & -9.968,3.422 & 4.273
COc1ccc2c(c1)OCC(Cc1cncc(N)c1)C2 (stereo not given),-24.15,-9.931
Cc1cccc(C(=O)N2CCSCC2)c1NC(=O)c1ccsc1,-1.169,0.7386 & 1.209
CC(C)(C)c1ncc(C(=O)NC(C(N)=O)c2ccccc2)s1 (stereo not given),-1.45,-24.89
Cc1cccnc1NC(=O)C(C)Cn1nc(C(F)(F)F)cc1C (stereo not given),-0.4133,-4.968
CC(C)c1nccn1CC1CCCN1Cc1nc2ccccc2n1C (stereo not given),-20.99,-17.71 & -2.084
Cc1nn(-c2cc(Cl)cc(Cl)c2)c(C)c1CCC(=O)O,-13.81,-7.743
Cc1cnc(C)c(-c2cc(O)c3c(c2)CN(c2ncccn2)CCO3)n1,-30.75,13.08 & -62.19
Cc1noc(C)c1CN(C)CC(=O)/N=c1\cc[nH]n1C(C)C1CC1 (stereo not given),-25.95,-2.307
Cc1ncccc1CNc1ccc(OCCO)nc1,-20.51,-41.84
c1cnnc(NCC2CN(CC3CCOCC3)CCO2)c1 (stereo not given),-8.114,-12.26
COc1ncccc1NC(=O)N1CCC(CN2CCOCC2)CC1,-3.873,17.62
CC(C)c1noc(OCC(=O)N(C)C(C)C)n1,-3.403,-6.907
O=C1CC[C@H](C(=O)N(CCc2ccccc2)C2CCOC2)N1 (stereo not given in full),-16.82,-29.6 & 1.106
CCn1cnnc1C1CCN(C(=O)c2cccc(C)c2C)CC1,-37.98,-47.66
CCc1nccn1C1CCCN(C(=O)c2ccc3nncn3c2)C1 (stereo not given),0.6633,-1.482
O=C(NCCCn1ccnc1)Nc1ccn(CCc2ccccn2)n1,-23.5,-2.758
Cn1ccc(CN2CCCC23CCNCC3)n1,1.532,-11.39 & -2.091
c1ccc2c(c1)CC(Cc1cc(N3CCCC3)cnn1)CO2 (stereo not given),12.86,34.72
CCN(CC(=O)Nc1cc(Cl)ccc1C)C(=O)c1ccc(=O)[nH]n1,-26.49,-22.64
CCc1nc2n(n1)CC(NCc1ncc(-c3ccccc3)o1)CC2 (stereo not given),-3.587,1.452
COc1ccc2oc(C(C)NC(=O)NC3CCN(C)CC3)c(C)c2c1 (stereo not given),-17.81,-11.68
CC(C)(C)OC(=O)NCC1CCCCN1Cc1ccncc1 (stereo not given),4.084,4.092 & 0.2989
Cc1cccc(OCCN2CCC(c3ccnn3CCO)CC2)c1,-2.354,52.72
CCCC(C)NC(=O)c1ccc(-c2ccco2)[nH]c1=O (stereo not given),-7.551,-15.43
CCC(c1ccc(F)cc1F)S(=O)(=O)CCO (stereo not given),-4.189,18.57
C[C@@H]1CN(Cc2ccc(C(F)(F)F)cc2F)CC[C@]1(C)O,-15.35,-3.557 & -27.91

4 of the entries, repeated:

| structure | A | B |
|---|---|---|
| `CC(=O)N1CCC(Cc2cccc(-c3c(C)noc3C)n2)C1` (stereo not given) | -1.452 | -6.219 |
| `O=C(O)C(F)(F)F.O=C(O)C(F)(F)F.[H][C@@]12CN(CCOC)C[C@]1([H])[C@@H](OC)CCN2Cc1cccs1` | 10.08 | 20.96 |
| `Cc1noc(CN(Cc2ccco2)Cc2cccc3c2OCO3)n1` | 27.53 | 4.832 |
| `CCc1nccn1C1CCCN(C(=O)c2ccc3nncn3c2)C1` (stereo not given) | 0.6633 | -1.482 |